Primary screen of a compound library

Amino acid sequences for entries named in this document (tags omitted).
UniProt E9BF75, entry or part of it: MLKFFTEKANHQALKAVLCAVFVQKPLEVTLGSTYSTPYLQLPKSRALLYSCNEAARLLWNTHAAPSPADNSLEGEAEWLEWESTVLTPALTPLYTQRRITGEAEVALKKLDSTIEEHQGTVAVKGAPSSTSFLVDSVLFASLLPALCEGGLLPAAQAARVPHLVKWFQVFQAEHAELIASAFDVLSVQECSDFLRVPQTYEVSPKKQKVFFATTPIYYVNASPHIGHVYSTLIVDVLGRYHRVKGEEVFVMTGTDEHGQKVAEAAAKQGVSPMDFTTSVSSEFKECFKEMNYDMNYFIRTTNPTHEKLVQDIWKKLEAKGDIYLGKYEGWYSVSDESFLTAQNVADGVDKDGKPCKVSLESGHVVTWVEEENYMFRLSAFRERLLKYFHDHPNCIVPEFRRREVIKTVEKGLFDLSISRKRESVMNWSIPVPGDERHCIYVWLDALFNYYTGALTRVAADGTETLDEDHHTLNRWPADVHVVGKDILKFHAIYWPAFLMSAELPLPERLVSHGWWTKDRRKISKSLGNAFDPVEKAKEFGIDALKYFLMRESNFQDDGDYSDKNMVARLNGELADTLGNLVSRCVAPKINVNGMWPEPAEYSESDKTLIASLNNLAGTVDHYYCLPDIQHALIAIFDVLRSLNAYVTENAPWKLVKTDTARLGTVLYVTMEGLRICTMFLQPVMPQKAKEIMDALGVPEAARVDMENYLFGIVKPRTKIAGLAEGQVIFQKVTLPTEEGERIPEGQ

Data taken from ChEMBL document CHEMBL3988442, “University of Dundee, Small-Polar-MMV Screening Library” (2021).

Mtb heat-shock: 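Assay on Mycobacterium tuberculosis, filed only as a heat shock assay from Cornell; the read-out is not stated. The concentration is filed as 10 mM, unlikely as a test dose, so the dose is not known. The record gives no direction; compounds that gave an IC50 in retests scored well above the rest, so higher reads as stronger inhibition. Of about 69,000 compounds tested this way, about 930 (1.4%) reached 50% or more in at least one test.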
LdMetRS: 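Methionyl-tRNA synthetase (putative), Leishmania donovani (UniProt E9BF75). Primary screen of methionyl-tRNA synthetase; the read-out is not stated. The test concentration is not given. Values are per cent inhibition. Size under these conditions: about 68,000 compounds, about 24 of them at 50% or above in at least one test.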
Mtb growth Cornell: 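Whole-cell assay for inhibitors of Mycobacterium tuberculosis growth, labelled Cornell in the record; the read-out is not stated. The concentration is filed as 10 mM, unlikely as a test dose, so the dose is not known. Higher means stronger inhibition (inferred from two other growth screens of the library). About 53,000 compounds were tested under these conditions; 1.7% (about 900) showed 50% or more at least once.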

All values are in %.
How 0% and 100% were set is not recorded. Most values in the screen are low, and negative values occur.
The compounds are a random part of those screened.
A dash means the value is not listed here; it may have been measured.

| SMILES | Mtb heat-shock | LdMetRS | Mtb growth Cornell |
|---|---|---|---|
| `COc1nn(C)c2c1CCCN(C(=O)c1ccc3ccccc3n1)C2` | - | 0 | - |
| `Cc1cc(-c2ccc(=O)n(CCNC(=O)C3CC3)n2)c(C)o1` | -15.14 | 16.04 | 55.53 |
| `CN(C)CCN(CC1CCCO1)S(=O)(=O)NCc1ccccc1` (stereo not drawn) | 14.66 | 1.535 | -26.85 |
| `CC(=O)N1CCCC1c1ccc(CN2CCOCC2)cn1` (stereo not drawn) | -19.5 | 4.361 | -30 |
| `Cc1cnn(C2CCCN(C(=O)c3cccc(-n4cnnn4)c3)C2)c1` (stereo not drawn) | 2.149 | 18.2 | - |
| `[H][C@@]12C[C@H](C(=O)NC(C)C)[C@@]([H])(CN(C(=O)Nc3ccc(CC)cc3)C1)O2` | 5.697 | - | 3.127 |
| `Cc1ccc(CN(C(=O)NCC(c2cccs2)N(C)C)C2CC2)o1` (stereo not drawn) | 6.199 | 3.191 | -1.261 |
| `COCc1ccc(CN2CCC(O)(Cn3ccc4ncccc43)CC2)o1.Cl` | -9.994 | - | - |
| `COc1cccc(CNC(=O)c2ccccc2-n2cnc(CN)c2)c1` | -30.16 | 7.345 | -31.51 |
| `Cc1c[nH]nc1C1CN(Cc2cnn(-c3ccccc3C(=O)O)c2)C1` | -1.855 | 15.58 | 2.308 |
| `CCn1c(C(=O)N2CCN(C(=O)NC(C)C)CC2)cc2ccccc21` | 4.643 | 6.883 | 15.98 |
| `Cc1nc(NCc2nccn2C)cc(C2COCCN2)n1` (stereo not drawn) | 13.53 | 15.31 | 42.51 |
| `CCN(CC)c1ncc(Cl)c(C(=O)NC2CCC(O)CC2)n1` (stereo not drawn) | 0.2908 | 7.357 | -12.73 |
| `CN(C)c1ccc(NC(=O)N2CCCCC2c2ncc[nH]2)cn1` (stereo not drawn) | 0.2263 | -1.989 | - |
| `O=S(=O)(c1ccc(Cl)cc1)N1CCC(OCc2ccccn2)C1` (stereo not drawn) | 7.505 | 14.44 | 39.36 |
| `Cc1nc(Nc2ncccn2)cc(C2CN(C(=O)c3cccnc3)C2)n1` | -4.117 | 14.89 | -41.62 |
| `CN(Cc1noc(C2CC2)n1)C1CCN(Cc2ccccc2C#N)C1` (stereo not drawn) | 16.23 | 10.53 | - |
| `COCCOc1ccnc(-c2noc([C@@H]3CCCN3C)n2)c1` | -2.755 | 1.695 | -18.45 |
| `CCS(=O)(=O)N1CCCC2(COCCN(c3ccccn3)C2)C1.O=C(O)C(F)(F)F` (stereo not drawn) | -36.03 | - | 20.14 |
| `COc1ccc(O[C@H]2COCCN(Cc3cccc4c3OCO4)C2)cc1` | -7.36 | 6.767 | 1.007 |
| `Cc1nc2c(c(=O)n1C)CCN(C(=O)CCc1ccccn1)CC2` | -8.945 | - | - |
| `CC(C)N1CCC(Cc2cncc(-c3cc(F)ccc3C(=O)O)n2)C1` (stereo not drawn) | -12.07 | 17.51 | -23.69 |
| `COc1cc(F)c(S(=O)(=O)N2CCN(C)Cc3ccccc32)cc1OC` | 0.9307 | 6.425 | 10.35 |
| `Cc1ccc(S(=O)(=O)NC[C@H]2OC[C@@H](NCc3cccnc3)[C@@H]2O)cc1` | -20.51 | 6.441 | 8.515 |
| `CC(C)C(=O)N1CCN(C(=O)c2cscn2)[C@H]2CS(=O)(=O)C[C@H]21` | - | 7.08 | - |
| `O=C(O)C(F)(F)F.[H][C@@]12C[C@H](C(=O)N3CCCC3)[C@@]([H])(CN(CCC(C)C)C1)O2` | 37.85 | - | 12.52 |
| `CC1=C(C#N)C(=O)NC(=O)/C1=C\c1c(C)nn(-c2ccc(C)cc2)c1O` | -3.023 | 7.297 | 24.62 |
| `CCCNC(=O)COc1ccc(-c2ccccc2)nc1` | -9.12 | 12.66 | 6.812 |
| `CS(=O)(=O)NCC1CCN(Cc2cc3ccccc3[nH]c2=O)C1` (stereo not drawn) | -23.92 | 12.89 | 12.69 |
| `CCCc1cc(C(=O)N2CCCN(c3cccnn3)CC2)[nH]n1` | -8.473 | 20.41 | -5.897 |
| `OCc1cc2ccccc2nc1N1CCCC1` | 7.935 | 10.13 | 30.42 |
| `Cn1cc(-c2nc(CNCCn3cccn3)cs2)cn1` | -4.068 | 6.748 | -7.828 |
| `O=C(O)C(F)(F)F.[H][C@@]12CN(Cc3cnn(C)c3)C[C@]1([H])C(=O)N(c1cncnc1)C2` | -23.27 | - | 1.059 |
| `CCc1n[nH]c(C2CN(Cc3nnc(C4CC4)o3)CCO2)n1` (stereo not drawn) | -15.12 | 24.51 | - |
| `Cc1cnc(C(=O)NCc2cccnc2OC(C)C)cn1` | -8.898 | 10.12 | - |
| `C1CC(CN2C[C@H]3CC[C@@H]2CN(Cc2nnc(C4CC4)o2)C3)C1` | - | 9.964 | - |
| `Cn1ccnc1C1(O)CCCN(Cc2ccncc2)CC1` (stereo not drawn) | -3.933 | 16.56 | 43.34 |
| `[H][C@@]12COC[C@]1(COc1ccc(C#N)cn1)CN(Cc1ccccn1)C2` | -20.96 | - | 3.163 |
| `Cc1nc(CNC(=O)NCC(O)c2ccccc2)cs1` (stereo not drawn) | -21.25 | 19.55 | - |
| `O=C(NC1CCC1)[C@H]1C[C@H]2NCCO[C@@H]2C1` | - | 4.795 | - |
| `CC(C)C(O)CNC(=O)CCCc1ccccn1` (stereo not drawn) | 0.09181 | 15.97 | 12.68 |
| `CCc1ccc(NC(=O)c2cnc(N3CCN(C)CC3)nc2C)cc1` | 1.252 | 5.882 | -19.2 |
| `Cc1ccc(NC2CCN(C(=O)Cc3ccc(C)s3)CC2)nn1` | 15.4 | 19.37 | -11.26 |
| `c1cnc(N2CCO[C@H]3CN(CC4CCOC4)C[C@H]32)cn1` (stereo partly drawn) | - | 13.51 | - |
| `COCCC1(CNC(=O)Nc2ccc(-n3nccn3)cc2)CCC1` | 28.06 | 7.692 | 32.79 |
| `Cc1nc(C)c(C(=O)N2CCCc3c(F)ccc(F)c32)o1` | 12.45 | 11.15 | - |
| `O=C(O)[C@@H]1CN(C(=O)CCCc2ccc(F)cc2)C[C@H]1C1CC1` | 8.444 | -4.092 | -11.2 |
| `Cn1ccc(C(=O)N2CCC3(CCN3c3ncccn3)C2)n1` (stereo not drawn) | - | 15.3 | - |
| `OCCn1cc(CN2CCN(CCOCC(F)(F)F)CC2)cn1` | 6.804 | 4.127 | 8.935 |
| `c1cncc(-c2ncnc3c2CCN(Cc2cccs2)CC3)c1` | - | -1.015 | - |
| `CC(C)Cc1ncc2c(n1)CN(C(=O)Cn1c(=O)oc3ccccc31)C2` | 21.35 | 7.117 | -4.55 |
| `COc1ccc(C)cc1C(=O)N1CCCC(n2cncn2)C1` (stereo not drawn) | -15.41 | 12.57 | - |
| `Cc1cccc(CNC2CC(=O)N(Cc3cccc(F)c3)C2)c1` (stereo not drawn) | -10.36 | 5.222 | 19.66 |
| `COc1cc(Oc2ccc(C(N)=O)cn2)ccc1CN1CCCC1` | -36.45 | 7.886 | 6.938 |
| `O=C(NCCCN1CCOCC1)c1cc(-c2ccccc2)[nH]n1` | -9.835 | 15.95 | 7.573 |
| `COCC1Cn2nnc(-c3cnn(C)c3)c2CN1Cc1ccco1.O=C(O)C(F)(F)F` (stereo not drawn) | 13.24 | - | 3.466 |
| `c1ccc(CN2CCC(Nc3ncnc4c3CCNCC4)C2)cc1` (stereo not drawn) | -11.85 | 17.76 | 21.59 |
| `CCc1noc(-c2cccc(OCC(=O)NC(C)C)c2)n1` | -24.16 | 10.82 | - |
| `CCC(SC)C(=O)N1CCC(n2ccnn2)CC1` (stereo not drawn) | 6.225 | 6.406 | -27.57 |
| `NC(=O)c1cc(C2CCCN(CCCOc3ccc(F)cc3)C2)n[nH]1` (stereo not drawn) | 7.73 | 10.72 | - |
| `CCS(=O)(=O)c1ccc(N2CCC(NC(=O)CC3CCCC3)CC2)cc1` | 4.238 | 19.23 | -27.79 |
| `CCOc1cc(CN(C)CCCC#N)ccc1OC(F)F` | 1.94 | 5.722 | 7.532 |
| `Cc1nc2sccn2c1CNC1(c2ccccc2F)CCCC1` | - | 13.44 | - |
| `CCc1n[nH]c(=O)c(C(=O)N2CCSCC2)c1CC` | 6.333 | 19.26 | 25.16 |
| `Cc1cccc(CN2CC3(CCN(S(=O)(=O)C4CC4)CC3)OCC2=O)n1` | - | 15.23 | - |
| `COc1cccc(C2CC(=O)Nc3c2c(=O)n(C)c2ncnn32)c1` (stereo not drawn) | -10.38 | 2.286 | - |
| `O=c1cc(-c2cccnc2)nc(-c2ccc(CN3CC[C@H](O)C3)cc2)[nH]1` | -26.5 | 2.235 | -9.597 |
| `O=C(O)C(F)(F)F.O=C(O)C(F)(F)F.[H][C@@]12C[C@H](C(=O)NC(C)C)CN(Cc3ccc4ccccc4n3)[C@]1([H])CCO2` | -9.211 | - | 24.11 |

Some entries from above, unchanged:

* OCCn1cc(CN2CCN(CCOCC(F)(F)F)CC2)cn1 : Mtb heat-shock: 6.804%; LdMetRS: 4.127%; Mtb growth Cornell: 8.935%
* c1cnc(N2CCO[C@H]3CN(CC4CCOC4)C[C@H]32)cn1 (stereo partly drawn) : LdMetRS: 13.51%
* Cc1ccc(NC2CCN(C(=O)Cc3ccc(C)s3)CC2)nn1 : Mtb heat-shock: 15.4%; LdMetRS: 19.37%; Mtb growth Cornell: -11.26%
* CCn1c(C(=O)N2CCN(C(=O)NC(C)C)CC2)cc2ccccc21 : Mtb heat-shock: 4.643%; LdMetRS: 6.883%; Mtb growth Cornell: 15.98%
* CCc1ccc(NC(=O)c2cnc(N3CCN(C)CC3)nc2C)cc1 : Mtb heat-shock: 1.252%; LdMetRS: 5.882%; Mtb growth Cornell: -19.2%
* Cc1nc(Nc2ncccn2)cc(C2CN(C(=O)c3cccnc3)C2)n1 : Mtb heat-shock: -4.117%; LdMetRS: 14.89%; Mtb growth Cornell: -41.62%
* Cn1cc(-c2nc(CNCCn3cccn3)cs2)cn1 : Mtb heat-shock: -4.068%; LdMetRS: 6.748%; Mtb growth Cornell: -7.828%
* CC(C)C(=O)N1CCN(C(=O)c2cscn2)[C@H]2CS(=O)(=O)C[C@H]21 : LdMetRS: 7.08%